The text below walks through data of paper PMC5996148.

Experiment in all cases: protein microarray (ProtoArray v5.0), streptavidin-Alexa Fluor 647
Settings in all cases: 3'-biotin; 20 mM Tris (pH 7.5), 5 mM MgCl2, 100 mM KCl, 0.1% Tween-20, A/T-rich and random oligonucleotide blockers; temperature not stated; high values mean tight binding

Experiment [1] relates to Baculoviral IAP repeat-containing protein 7 (human).
The test system of experiment [2] is Bcl-2-related proline-rich protein (human).
Experiment [3] deals with Beta-2-microglobulin (human).
Experiment [4] deals with Bifunctional protein NCOAT (human).
In experiment [5] the test system is Biogenesis of lysosome-related organelles complex 1 subunit 1 (human).
In experiment [6] the test system is Branched-chain-amino-acid aminotransferase, mitochondrial (human).
Experiment [7] concerns Breast carcinoma-amplified sequence 4 (human).
The subject of experiment [8] is C-C motif chemokine 20 (human).
For experiment [9], the system named is C-C motif chemokine 4 (human).
For experiment [10], the system named is C-Maf-inducing protein (human).

This is one part of the list.

Take “GGGGACAGGGGTATGGGGAGGGG [G4-3 biotinylated (CtG)]”: the binding signal in experiment [1] was -0.336 z-score; in [2], -0.324 z-score; in [3], -0.326 z-score; in [4] it was -0.333 z-score; in experiment [5], -0.32 z-score; in [6] it was -0.343 z-score. Moreover, the binding signal in experiment [7] was -0.337 z-score; in experiment [8], -0.314 z-score; in experiment [9], -0.322 z-score; in experiment [10], -0.333 z-score.
